# Assay results from article doi:10.1101/2025.03.26.645568.
# Results are given in words; binding and its absence hold for the method and conditions named. Binding seen in cells or lysates may run through a third protein. A result given as binding can be weak or reduced; the word gives no strength. Sequences can lack the tags named with a protein.
# Molecular target: Mam1D with C-terminal Strep-tag (co-expression construct) (Mycobacterium tuberculosis)
# Assay: pull-down + SEC
binder,measurement,value
"LucA without tag (co-expression construct) (protein, UniProt O69690 1-254) MGRKVAVLWHASFSIGAGVLYFYFVLPRWPELMGDTGHSLGTGLRIATGALVGLAALPVVFTLLRTRKPELGTPQLALSMRIWSIMAHVLAGALIVGTAISEVWLSLDAAGQWLFGIYGAAAAIAVLGFFGFYLSFVAELPPPPPKPLKPKKPKQRRLRRKKTAKGDEAEPEAAEEAENTELAAQEDEEAVEAPPESIESPGGEPESATREAPAAETATAEEPRGGLRNRRPTGKTSHRRRRTRSGVQVAKVDE",binding,binds
